Source: PubChem BioAssay AID504764 (Drosophila RNAi Screening Center, 2011)

Aim: 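Knock-downs that raise or lower a Notch target reporter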 (primary screen)
Cell system: Drosophila Kc167 cells
Reagents: long dsRNA against Drosophila genes
Duration: about 5 days (4 days dsRNA, then 24 h after transfection)
Challenge: transfection of constitutively active membrane-tethered Notch lacking the extracellular domain, read 24 h later
Detection: 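Firefly luciferase from an E(spl)m3 reporter with active Notch, plus control-promoter and uninduced reporter wells for normalisation; unnormalised counts, duplicate wells a and b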
Scale: induced reporter light, run 1, well a and induced reporter light, run 1, well b: higher = more light from the Notch target reporter with active Notch; control promoter light, run 1, well a and control promoter light, run 1, well b: higher = more light from the viral control promoter (cell number, transfection, viability); uninduced reporter light, run 1, well a: higher = more light from the Notch target reporter without active Notch
Hit rule: 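Wells with low control signal or poorly matching duplicates excluded; duplicates averaged; per source plate, z beyond ±2 for induced/control log2 ratio or beyond ±1.8 for induced/uninduced marks a hit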
Meaning of the calls: active = modifier hit (raised or lowered Notch signal); inactive = not a hit
In all, the deposit lists about 22,000 reagents; shown is a random part of those that have a named target and a result. Of all reagents, 403 (1.9%) are marked active. 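Unnormalised raw counts per well; ratio z-scores behind the hit calls and whether each hit raises or lowers signal are not deposited.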 A plus sign joins genes that one reagent is predicted to hit. The record does not give: the amount of reagent.

target,DRSC id,"induced reporter light, run 1, well a","induced reporter light, run 1, well b","control promoter light, run 1, well a","control promoter light, run 1, well b","uninduced reporter light, run 1, well a",activity call
CG13658 (GeneID 43055),DRSC14659,1.07e5,1.29e5,1.53e5,1.63e5,11685,inactive
Ent1 (GeneID 33207),DRSC00330,1.76e5,1.78e5,2.07e5,2.02e5,17705,inactive
Clc (GeneID 40221),DRSC11116,99370,1.22e5,65750,87615,9855,inactive
wam (GeneID 42755),DRSC15171,1.50e5,1.63e5,1.89e5,1.77e5,13485,inactive
CG31886 (GeneID 326170),DRSC03248,2.49e5,2.60e5,1.91e5,1.93e5,19540,inactive
Non1 (GeneID 35963),DRSC05954,1.39e5,1.28e5,1.08e5,1.11e5,8560,inactive
CG5969 (GeneID 40269),DRSC11789,1.20e5,94155,60105,81040,6975,inactive
CG5065 (GeneID 36860),DRSC06912,1.44e5,1.10e5,1.28e5,1.72e5,14000,inactive
dmrt99B (GeneID 43495),DRSC15045,6320,4282,9250,9095,2215,inactive
siz (GeneID 40327),DRSC11622,51560,38215,34695,33780,3735,inactive
siz (GeneID 40327),DRSC11689,90600,98810,1.74e5,1.41e5,8410,inactive
siz (GeneID 40327),DRSC11690,1.19e5,1.12e5,1.36e5,1.20e5,11045,inactive
Cyp6a8 (GeneID 36666),DRSC07384,80645,76740,69830,66090,5805,inactive
Ir52a (GeneID 36715),DRSC06262,1.02e5,1.17e5,1.65e5,1.38e5,9305,inactive
CrebA (GeneID 39682),DRSC11122,1.45e5,1.44e5,82955,89970,11205,inactive
mora (GeneID 42874),DRSC16594,1.70e5,1.59e5,2.01e5,1.99e5,13150,inactive
CG14974 (GeneID 50167),DRSC08433,1.26e5,1.27e5,1.48e5,1.22e5,5030,inactive
CG9514 (GeneID 32418),DRSC20190,1.24e5,1.21e5,1.21e5,1.25e5,13305,inactive
CG9514 (GeneID 32418),DRSC20191,1.24e5,80860,1.14e5,1.18e5,13695,inactive
Ncc69 (GeneID 39410),DRSC10412,1.13e5,1.14e5,74845,37085,9015,inactive
Ncc69 (GeneID 39410),DRSC10413,1.98e5,1.86e5,2.84e5,3.18e5,14325,inactive
CG14985 (GeneID 38470),DRSC08078,1.96e5,1.92e5,1.83e5,2.24e5,12080,inactive
CG14985 (GeneID 38470),DRSC08443,1.37e5,1.22e5,1.64e5,1.47e5,6820,inactive
Hel25E (GeneID 33781),DRSC03342,10845,10825,9875,9850,842,inactive
flw (GeneID 44289),DRSC17992,63435,75325,66520,1.00e5,4760,inactive
flw (GeneID 44289),DRSC18774,1.80e5,1.48e5,1.80e5,1.69e5,11310,inactive

Limited to “control promoter light, run 1, well b” (7 entries from above):
siz (GeneID 40327) [DRSC11690] = 1.20e5
Cyp6a8 (GeneID 36666) [DRSC07384] = 66090
Ir52a (GeneID 36715) [DRSC06262] = 1.38e5
CrebA (GeneID 39682) [DRSC11122] = 89970
mora (GeneID 42874) [DRSC16594] = 1.99e5
CG14974 (GeneID 50167) [DRSC08433] = 1.22e5
CG9514 (GeneID 32418) [DRSC20190] = 1.25e5

The listing continues:
target,DRSC id,"induced reporter light, run 1, well a","induced reporter light, run 1, well b","control promoter light, run 1, well a","control promoter light, run 1, well b","uninduced reporter light, run 1, well a",activity call
pyd (GeneID 41062),DRSC12712,1.62e5,1.34e5,1.30e5,1.62e5,11280,inactive
pyd (GeneID 41062),DRSC14387,1.12e5,1.32e5,85810,80985,9395,inactive
pyd (GeneID 41062),DRSC14445,1.16e5,1.21e5,1.41e5,96720,8140,inactive
pyd (GeneID 41062),DRSC14509,98605,1.23e5,1.00e5,83875,7970,inactive
pyd (GeneID 41062),DRSC16547,1.37e5,1.21e5,99605,78190,9955,inactive
pyd (GeneID 41062),DRSC16548,18675,31305,19505,16695,3692,inactive
pyd (GeneID 41062),DRSC17041,91105,1.00e5,1.29e5,93855,6550,inactive
pyd (GeneID 41062),DRSC21523,,,,,,inactive
CG4911 (GeneID 39043),DRSC10456,1.15e5,1.11e5,66115,36960,8030,inactive
Vha13 (GeneID 42341),DRSC16895,1.35e5,1.07e5,1.56e5,1.56e5,8570,inactive
CG5334 (GeneID 32402),DRSC19941,1.12e5,93470,1.05e5,91020,12900,inactive
CG12782 (GeneID 37685),DRSC04127,2.75e5,2.11e5,1.92e5,2.33e5,16780,inactive
CG33136 (GeneID 318894),DRSC05744,1.07e5,1.03e5,1.21e5,1.32e5,8038,inactive
Or59b (GeneID 37715),DRSC04632,2.05e5,2.04e5,1.70e5,1.79e5,15285,inactive
Trxr1 (GeneID 31760),DRSC18668,1.76e5,1.48e5,2.06e5,2.24e5,12150,inactive
CG12438 (GeneID 34202),DRSC02167,93165,1.49e5,95275,1.32e5,20630,inactive
CG17047 (GeneID 36478),DRSC06648,79385,96860,96830,1.14e5,7630,inactive
CG30192 (GeneID 246510),DRSC03977,72665,69445,82290,76830,7570,inactive
Ccm3 (GeneID 41876),DRSC15711,2.91e5,2.42e5,2.43e5,2.61e5,21960,inactive
Fem-1 (GeneID 37344),DRSC07322,1.27e5,1.10e5,1.90e5,1.87e5,5645,inactive
Rab9D + Rab9Fa + Rab9E,DRSC19853,1.31e5,1.18e5,2.47e5,2.29e5,8270,inactive
CtsL3 (GeneID 40741),DRSC12171,1.68e5,1.25e5,94055,1.03e5,10415,inactive
CG32302 (GeneID 38293),DRSC08340,99525,1.02e5,1.85e5,1.46e5,6790,inactive
lbl (GeneID 42541),DRSC16986,1.47e5,1.41e5,1.57e5,1.47e5,9770,inactive
